Data: paper PMC2778955
These are yes or no findings as the source states them, for the method shown. For some assays here: In cells and extracts the contact can be indirect. Some entries that bind do so weakly or less than the wild type. For some assays here: Sequences can lack the tags named with a protein.

T1: IRF3 (endogenous, MEFs) (mouse (endogenous in MEFs)), P70671
T1 chain: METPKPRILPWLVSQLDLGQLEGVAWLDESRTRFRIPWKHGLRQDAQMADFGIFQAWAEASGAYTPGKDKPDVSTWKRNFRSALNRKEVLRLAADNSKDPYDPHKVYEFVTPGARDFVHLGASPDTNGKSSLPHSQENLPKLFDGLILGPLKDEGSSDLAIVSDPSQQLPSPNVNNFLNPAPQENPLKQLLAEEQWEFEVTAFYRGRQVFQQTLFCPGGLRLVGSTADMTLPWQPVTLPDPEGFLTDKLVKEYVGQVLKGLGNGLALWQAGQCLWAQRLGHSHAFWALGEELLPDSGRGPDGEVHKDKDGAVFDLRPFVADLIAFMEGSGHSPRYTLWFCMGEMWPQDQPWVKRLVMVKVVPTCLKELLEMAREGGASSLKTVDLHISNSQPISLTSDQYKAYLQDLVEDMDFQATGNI


Experiments:
[1] = target: T1, IRF3 (endogenous, MEFs) (mouse …); assay: native gel or EMSA; conditions: remark: other sources report otherwise
[2] = target: Myc epitope-tagged IKKγ-WT (human), Q9Y6K9; assay: co-IP; co-transfected HEK293 cells (cell line not named for Figure 8C), 48 h; whole cell extracts in modified RIPA buffer; nondenaturing IP with anti-Myc Ab at 4°C; blot with anti-Flag or anti-V5 Ab; conditions: remark: other sources report otherwise

| Binder | binding [1] | binding [2] |
| --- | --- | --- |
| IRF3 (endogenous, MEFs), P70671 1-419 (protein) METPKPRILPWLVSQLDLGQLEGVAWLDESRTRFRIPWKHGLRQDAQMADFGIFQAWAEASGAYTPGKDKPDVSTWKRNFRSALNRKEVLRLAADNSKDPYDPHKVYEFVTPGARDFVHLGASPDTNGKSSLPHSQENLPKLFDGLILGPLKDEGSSDLAIVSDPSQQLPSPNVNNFLNPAPQENPLKQLLAEEQWEFEVTAFYRGRQVFQQTLFCPGGLRLVGSTADMTLPWQPVTLPDPEGFLTDKLVKEYVGQVLKGLGNGLALWQAGQCLWAQRLGHSHAFWALGEELLPDSGRGPDGEVHKDKDGAVFDLRPFVADLIAFMEGSGHSPRYTLWFCMGEMWPQDQPWVKRLVMVKVVPTCLKELLEMAREGGASSLKTVDLHISNSQPISLTSDQYKAYLQDLVEDMDFQATGNI | binds | – |
| Flag epitope-tagged IKKα, O15111 1-745 (enzyme) MERPPGLRPGAGGPWEMRERLGTGGFGNVCLYQHRELDLKIAIKSCRLELSTKNRERWCHEIQIMKKLNHANVVKACDVPEELNILIHDVPLLAMEYCSGGDLRKLLNKPENCCGLKESQILSLLSDIGSGIRYLHENKIIHRDLKPENIVLQDVGGKIIHKIIDLGYAKDVDQGSLCTSFVGTLQYLAPELFENKPYTATVDYWSFGTMVFECIAGYRPFLHHLQPFTWHEKIKKKDPKCIFACEEMSGEVRFSSHLPQPNSLCSLVVEPMENWLQLMLNWDPQQRGGPVDLTLKQPRCFVLMDHILNLKIVHILNMTSAKIISFLLPPDESLHSLQSRIERETGINTGSQELLSETGISLDPRKPASQCVLDGVRGCDSYMVYLFDKSKTVYEGPFASRSLSDCVNYIVQDSKIQLPIIQLRKVWAEAVHYVSGLKEDYSRLFQGQRAAMLSLLRYNANLTKMKNTLISASQQLKAKLEFFHKSIQLDLERYSEQMTYGISSEKMLKAWKEMEEKAIHYAEVGVIGYLEDQIMSLHAEIMELQKSPYGRRQGDLMESLEQRAIDLYKQLKHRPSDHSYSDSTEMVKIIVHTVQSQDRVLKELFGHLSKLLGCKQKIIDLLPKVEVALSNIKEADNTVMFMQGKRQKEIWHLLKIACTQSSARSLVGSSLEGAVTPQTSAWLPPTSAEHDHSLSCVVTPQDGETSAQMIEENLNCLGHLSTIIHEANEEQGNSMMNLDWSWLTE | – | binds |
